Measurements published in PubChem BioAssay AID1296 (Columbia University Molecular Screening Center, 2008).
In all, about 130,000 compounds went through this assay and about 1,000 (0.77%) were called active. This list was built around the results that the source calls inconclusive (neither active nor inactive); the mix of calls is not that of the screen.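 Rule for the calls: active = activation at 2 µM above a set limit, confirmed on inspection of the cell images; inconclusive = above the set limit but not confirmed on image inspection; inactive = the rest.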

test: activators of insulin promoter-driven GFP, primary screen, imaging, TRM-6 cells (human fetal islet line), eGFP reporter, cell count (AID 1296;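 note: share of cells whose green reporter signal exceeds an intensity cutoff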); conditions: at 2 µM, stronger effect = higher value, plate-scaled: unstimulated 0, stimulated control 100
In short: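 Assay system: TRM-6 human fetal islet cells, insulin promoter–eGFP reporter; Also added: 0.75 µM tamoxifen as reporter inducer; Schedule: 15 h tamoxifen pre-treatment, 48 h compound treatment at 37 °C; Signal: fixed-cell fluorescence microscopy, eGFP plus Hoechst; Read-out: percent activation from GFP-positive cell fraction; Control set: stimulated and unstimulated wells.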

SMILES	activation
CCCCNC(=S)NNC(=O)C12CC3CC(CC(C3)C1)C2	active: 86.2%
CC(=O)N[C@@H](C)C(=O)OC(C)C(=O)Nc1cccc([N+](=O)[O-])c1 (stereo partly specified)	active: 392%
CCOC(=O)c1ccc(-n2ncc(C(=O)OCC)c2N)cc1	inconclusive: 426%
COc1ccc(OC)c(NC(=O)CN2CCC(C(=O)c3ccc(C)cc3)CC2)c1	inactive: -83.3%
C=CC[n+]1c(/C=C2\C=Cc3cc(C)ccc3N2CC)ccc2ccccc21	inconclusive: 413%
O=C(CCSc1nccn1Cc1ccccc1)N1CCOCC1	inactive: -8.33%
Cc1ccc(NC(=O)c2cc(N3C(=O)C4CC=CCC4C3=O)ccc2N2CCOCC2)cc1Cl (stereo unspecified)	inconclusive: 91.4%
S=c1[nH]nc(COc2ccc(Cl)cc2)n1C1CCCCC1	active: 437%
O=c1c2ccccc2oc2nc3ccn(Cc4ccncc4)c(=O)c3cc12	inactive: -6.67%
COc1ccc(C(=O)Nc2cccc(-c3nc4ncccc4o3)c2C)cc1	inconclusive: 270%
O=C(CN1CC(=O)Oc2ccccc21)OCC(=O)c1ccc(F)cc1	inconclusive: 214%
O=[N+]([O-])c1ccc(/C=N/Nc2ccc3ccccc3c2)o1	inconclusive: 669%
N#Cc1c(NCCCO)nc(-c2ccccc2)c2c1CCCC2	inactive: 0%
CCc1nc(SCC(=O)Nc2cc(C)on2)c2c(C)c(C)sc2n1	inconclusive: 143%
O=C(CCl)N=c1sccn1Cc1ccc(Cl)cc1Cl	inconclusive: 614% [cytotoxic]
COc1ccc(/C=C/C(=O)c2ccc[nH]2)c(OC)c1OC	inconclusive: 500%
CCn1c(CSCc2ccc(F)cc2)nnc1SCC(=O)N1CCN(c2ccccc2)CC1	active: 94.6%
CCN1C(=O)/C(=C\c2cccs2)C(C(=O)OC)=C1C	inconclusive: 562%
c1ccc(-c2nc(-n3nc4ccccc4n3)nc3ccccc23)cc1	active: 146%
CC1(C)CC(=O)C(C=NCc2ccc3c(c2)OCO3)=C(O)C1	inconclusive: 438%
COc1ccc(/C=C/C2=NN(Cc3ccccc3)C(=O)CC2)cc1	active: 388%
CN(C)/C=C/c1onc(-c2c(Cl)cccc2Cl)c1C#N	inconclusive: 164%
CCN1/C(=C/c2ccc3ccc(C)cc3[n+]2CC)Sc2ccccc21	active: 567%
CCOC(=O)c1c(C)[nH]c(C(=O)CSc2nnc(C3CC3)n2N)c1C	inconclusive: 431%
COc1ccc(C(=O)Nc2nc(C)cs2)cc1S(=O)(=O)N1CCCC1	active: 221%
CC1CCN(S(=O)(=O)c2ccc3nc(-c4ccccn4)cc(C(=O)NCCN(C)Cc4ccccc4)c3c2)CC1	inactive: 0%

Rewritten as a markdown table: 2 of the compounds above.

| SMILES | activation |
| --- | --- |
| O=C(CCSc1nccn1Cc1ccccc1)N1CCOCC1 | inactive: -8.33% |
| Cc1ccc(NC(=O)c2cc(N3C(=O)C4CC=CCC4C3=O)ccc2N2CCOCC2)cc1Cl (stereo unspecified) | inconclusive: 91.4% |
